## Screening data, single-dose tests

By UniProt entry, the sequences of proteins in these tests, tags left out.
UniProt I6X8D2, whole entry: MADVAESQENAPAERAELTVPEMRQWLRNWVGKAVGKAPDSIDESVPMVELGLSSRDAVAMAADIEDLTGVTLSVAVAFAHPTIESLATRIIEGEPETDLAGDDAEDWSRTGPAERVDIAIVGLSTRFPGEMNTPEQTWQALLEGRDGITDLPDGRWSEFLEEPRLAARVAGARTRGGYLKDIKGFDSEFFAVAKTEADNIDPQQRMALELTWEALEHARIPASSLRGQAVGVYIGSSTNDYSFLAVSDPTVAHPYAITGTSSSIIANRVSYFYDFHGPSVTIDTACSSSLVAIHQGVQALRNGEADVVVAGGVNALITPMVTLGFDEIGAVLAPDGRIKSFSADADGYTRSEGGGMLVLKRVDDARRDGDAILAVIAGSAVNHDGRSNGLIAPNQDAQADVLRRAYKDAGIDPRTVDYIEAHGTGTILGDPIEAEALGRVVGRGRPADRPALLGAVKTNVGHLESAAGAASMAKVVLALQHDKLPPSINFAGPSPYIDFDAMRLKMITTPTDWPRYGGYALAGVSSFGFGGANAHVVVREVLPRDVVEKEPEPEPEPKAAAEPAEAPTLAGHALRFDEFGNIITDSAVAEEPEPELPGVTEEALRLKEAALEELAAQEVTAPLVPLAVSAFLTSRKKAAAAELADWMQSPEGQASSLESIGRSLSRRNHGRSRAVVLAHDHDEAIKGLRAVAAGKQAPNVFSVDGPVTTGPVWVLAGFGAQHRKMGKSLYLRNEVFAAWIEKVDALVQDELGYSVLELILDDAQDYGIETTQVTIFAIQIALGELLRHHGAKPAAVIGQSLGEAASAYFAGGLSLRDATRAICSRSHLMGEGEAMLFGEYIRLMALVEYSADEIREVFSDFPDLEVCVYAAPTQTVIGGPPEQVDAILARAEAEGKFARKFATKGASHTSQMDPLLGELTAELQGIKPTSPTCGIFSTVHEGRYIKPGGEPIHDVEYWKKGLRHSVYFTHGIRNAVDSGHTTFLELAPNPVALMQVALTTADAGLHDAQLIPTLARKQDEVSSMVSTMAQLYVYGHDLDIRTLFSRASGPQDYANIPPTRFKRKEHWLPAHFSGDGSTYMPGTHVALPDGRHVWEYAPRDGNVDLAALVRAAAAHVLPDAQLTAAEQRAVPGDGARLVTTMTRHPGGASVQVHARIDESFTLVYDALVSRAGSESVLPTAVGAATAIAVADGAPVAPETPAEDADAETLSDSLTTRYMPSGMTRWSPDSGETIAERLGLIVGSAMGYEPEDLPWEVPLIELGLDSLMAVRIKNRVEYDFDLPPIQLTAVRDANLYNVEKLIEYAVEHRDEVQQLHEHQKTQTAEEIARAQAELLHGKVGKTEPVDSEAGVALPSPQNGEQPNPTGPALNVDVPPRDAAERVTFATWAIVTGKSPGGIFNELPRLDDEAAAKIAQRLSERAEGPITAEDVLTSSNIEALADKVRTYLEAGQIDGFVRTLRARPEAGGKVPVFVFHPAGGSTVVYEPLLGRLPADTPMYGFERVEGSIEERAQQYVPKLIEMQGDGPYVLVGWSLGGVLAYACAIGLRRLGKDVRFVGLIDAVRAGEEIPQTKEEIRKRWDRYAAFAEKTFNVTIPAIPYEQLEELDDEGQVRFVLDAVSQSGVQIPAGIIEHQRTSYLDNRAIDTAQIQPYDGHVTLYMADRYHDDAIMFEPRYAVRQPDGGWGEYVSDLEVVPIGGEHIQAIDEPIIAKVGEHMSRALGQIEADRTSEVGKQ

The values are deposited in ChEMBL (CHEMBL3988442, “University of Dundee, Small-Polar-MMV Screening Library” (2021)).

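Polyketide synthase Pks13, Mycobacterium tuberculosis (UniProt I6X8D2). Enzyme assay of the thioesterase domain of polyketide synthase 13; the read-out is not stated. Concentration: 30 µM. The record gives no direction; the compounds picked for IC50 retests had high values, so higher reads as stronger inhibition. Of about 67,000 compounds tested this way, about 300 (0.46%) reached 50% or more in at least one test.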

Results are given as percent effect.
The controls that fix the scale are not given in the record; negative values are as filed.
The compounds are a random part of those screened.

- COC(=O)CCN1CCC(NC(=O)OC(C)(C)C)CC1 | -14.92%
- O=C1NCCCc2[nH]c(C3CCN(C(=O)C4CC4)CC3)nc21 | -4.003%
- CCn1cnnc1CNC(=O)NCC(C(C)C)N1CCOCC1 (configuration not stated) | -26.34%
- COC(=O)c1ccc2ccn(CC3CCCO3)c(=O)c2c1 (configuration not stated) | -5.792%
- NC(=O)CN1C(=O)CO[C@H]2CN(Cc3ccc(F)c(F)c3)C[C@H]21 | -25.23%
- Cc1nnc([C@@H]2C[C@H]3CN(C(=O)c4c(C)noc4C)C[C@H]3O2)[nH]1 | -36.99%
- CC(C)c1cc(NC(=O)CN2CCCC(Cn3cncn3)C2)on1 (configuration not stated) | -0.5673%
- CCc1nc(CC(=O)N2CCn3c(nnc3C(F)(F)F)C2)cs1 | -4.825%
- Cc1noc(-c2ccc(N3CCCC(C(=O)O)C3)nc2)n1 (configuration not stated) | 1.599%
- CC(=O)N1CCc2ccc(NC(=O)c3cn(C)nn3)cc2C1 | -22.39%
- O=C(Nc1cccnc1)[C@H]1C[C@@H]2CN(Cc3ccc(F)cc3)C[C@H]1O2 | -3.071%
- CC(C)N1CCC2(CCCN(Cc3ccc(F)cc3)C2=O)C1 (configuration not stated) | -5.865%
- CSc1nc2cc(C)n(CC(=O)NC(C)C)c2c(=O)n1CC(C)C | -9.247%
- COCC(NC(=O)c1cccnc1)c1cccc(C(F)(F)F)c1 (configuration not stated) | -17.85%
- OC1CCN(c2ccccc2NCc2nc(-c3ccoc3)no2)CC1 | -11.26%
- COc1cc(C)nc(N2CCN(C(=O)CCc3ccncc3)CC2)n1 | -10.04%
- CCc1cnc(C)nc1NCCN1CCOCC1 | -33.24%
- Cc1nn(C)c2cnn(CC(=O)NCc3ccccc3F)c12 | -6.994%
- COCCN1CCC(Cc2cncc(-c3ccc(C(=O)O)cc3)n2)CC1 | -26.35%
- CN1C[C@@H](NC(=O)c2ccccc2)C[C@H]1c1nc(-c2cnccn2)no1 | 8.887%
- COc1ccc(CN(C)Cn2cc(C)n(-c3cc(C)on3)c2=O)cc1 | -3.416%
- OCCCNc1cccc(COC2CCCCC2)c1 | -0.4811%
- CC(C)C(NC(=O)N1CCN(c2ccc(Cl)cc2)CC1)C(=O)NC1CC1 (configuration not stated) | -4.612%
- COC(=O)CCn1ccc(=O)c2cc(OC)ccc21 | 25.31%
- COc1ccccc1N1CCN(C(=O)CCCS(N)(=O)=O)C(C)C1 (configuration not stated) | -25.6%
- O=S(=O)(c1ccccc1Cl)N1CCCC(c2ncc[nH]2)C1 (configuration not stated) | -38.93%
- Cc1cccc(C2(NC(=O)CCCn3cncn3)CCCC2)c1 | -5.559%
- COCC1c2c(cnn2CC2CCOCC2)CCN1Cc1ccoc1 (configuration not stated) | -7.995%
- Cc1nn(C)c(C)c1C1CCCN1Cc1cccc(C(N)=O)c1 (configuration not stated) | 1.338%
- Cc1cc(C(=O)N2CCCCC2C)ccc1NCCCO (configuration not stated) | -5.623%
- Cn1ncc2c(N3CCN(CCO)CC3)nc(C3CCCC3)nc21 | -30.44%
- CC(=O)N1CCC(c2nn(C)c(=O)n2-c2ccccc2)CC1 | -4.144%
- O=C(NCCn1ccnc1)N1CCCN(Cc2cccs2)CC1 | -27.92%
- Cn1c(Cn2ccnc2)nnc1C1CCCN(CC(C)(C)C)C1 (configuration not stated) | -20.55%
- CCN(C)S(=O)(=O)c1c(F)cc(NC(C)=O)cc1F | -12.02%
- O=C1[C@H]2CC[C@H](CN(C3CSCCSC3)C2)N1Cc1cscn1 | -7.487%
- O=C(N1CCSCC1)C1(O)Cc2ccccc2C1 | -3.955%
- CC(Cn1cccn1)NC(=O)Nc1ccc(N(C)C)nc1 (configuration not stated) | 20.95%
- CCOCC(O)CN1CCN(C(=O)c2ccc(N(C)C)nc2)CC1 (configuration not stated) | 1.667%
- CC(C)OCCS(=O)(=O)c1nccn1-c1cccc(F)c1 | -22.72%
- O=C(NCc1ccc2c(c1)CCCO2)c1ccc(C2CCNC2)cc1 (configuration not stated) | -9.696%
- CCCN1CCC(c2nc3ccc(NCc4cccnc4)cn3n2)CC1 | 7.723%
- Cc1ccnc(NC(=O)c2cnc(C3CCCNC3)cn2)c1 (configuration not stated) | 13.47%
- CC(NC(=O)Nc1nnc(-c2ccccn2)s1)C(=O)OC(C)(C)C (configuration not stated) | -31.27%
- CC1(NC(=O)Cc2cccs2)CCS(=O)(=O)C1 (configuration not stated) | 0.6708%
- Cn1cc(CN2CCC3(CC2)COC(COc2ccccn2)C3)cn1 (configuration not stated) | -1.339%
- COCCn1cnnc1CN(C)c1nc(N)nc2c1CCCC2 | -8.774%
- CC(C)(O)CCc1ccc(C(=O)N2Cc3cnn(CCO)c3C2)cc1 | -8.4%
- CN1C[C@H](O)[C@]2(CCN(Cc3ccc(F)c(F)c3)C2)S1(=O)=O | -15.25%
- COC(C)(C)CC(C)NCc1cc(-c2ccco2)on1 (configuration not stated) | -5.24%
- O=C1N(C2CCOCC2)CCCC12CCN(c1ncccc1Cl)C2 (configuration not stated) | -11.97%
- Cc1occc1C(=O)N1CCC2(CC1)NC(=O)CC2c1cnn(C)c1 (configuration not stated) | -28.85%
- Fc1cnc(N2CC[C@@H]3O[C@H](COCc4ccccn4)CC[C@@H]32)nc1 | -5.433%

Some entries from above, unchanged:

| SMILES | Percent Effect |
|---|---|
| `Cc1nn(C)c(C)c1C1CCCN1Cc1cccc(C(N)=O)c1` (configuration not stated) | 1.338 |
| `Cc1cc(C(=O)N2CCCCC2C)ccc1NCCCO` (configuration not stated) | -5.623 |
| `Cc1occc1C(=O)N1CCC2(CC1)NC(=O)CC2c1cnn(C)c1` (configuration not stated) | -28.85 |
| `CC(C)N1CCC2(CCCN(Cc3ccc(F)cc3)C2=O)C1` (configuration not stated) | -5.865 |